Like-named read-outs stand apart in the source and are kept apart here. These are yes or no findings as the source states them, for the method shown. In cells and extracts the contact can be indirect. A yes stands for co-enrichment or nearness to the bait. Other partners may have been found. Sequences can lack the tags named with a protein.
T1: c-Myc-BirA-Rab34 (UniProt Q64008)
T1 sequence: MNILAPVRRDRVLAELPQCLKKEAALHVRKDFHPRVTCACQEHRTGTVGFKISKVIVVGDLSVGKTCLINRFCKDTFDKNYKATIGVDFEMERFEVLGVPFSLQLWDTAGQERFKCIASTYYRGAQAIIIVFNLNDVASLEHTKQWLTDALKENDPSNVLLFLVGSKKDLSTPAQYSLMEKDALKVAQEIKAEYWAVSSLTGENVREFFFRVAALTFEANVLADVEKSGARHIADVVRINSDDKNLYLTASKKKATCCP

Sequences of proteins named here, by UniProt entry; tags and fusion partners are left off. Residues count along the entry.
UniProt Q64339, residues 1-155: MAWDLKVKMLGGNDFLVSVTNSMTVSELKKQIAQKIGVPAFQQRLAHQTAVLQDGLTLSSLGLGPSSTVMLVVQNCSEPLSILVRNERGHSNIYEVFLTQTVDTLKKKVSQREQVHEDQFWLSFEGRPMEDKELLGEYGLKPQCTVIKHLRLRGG
UniProt Q02053: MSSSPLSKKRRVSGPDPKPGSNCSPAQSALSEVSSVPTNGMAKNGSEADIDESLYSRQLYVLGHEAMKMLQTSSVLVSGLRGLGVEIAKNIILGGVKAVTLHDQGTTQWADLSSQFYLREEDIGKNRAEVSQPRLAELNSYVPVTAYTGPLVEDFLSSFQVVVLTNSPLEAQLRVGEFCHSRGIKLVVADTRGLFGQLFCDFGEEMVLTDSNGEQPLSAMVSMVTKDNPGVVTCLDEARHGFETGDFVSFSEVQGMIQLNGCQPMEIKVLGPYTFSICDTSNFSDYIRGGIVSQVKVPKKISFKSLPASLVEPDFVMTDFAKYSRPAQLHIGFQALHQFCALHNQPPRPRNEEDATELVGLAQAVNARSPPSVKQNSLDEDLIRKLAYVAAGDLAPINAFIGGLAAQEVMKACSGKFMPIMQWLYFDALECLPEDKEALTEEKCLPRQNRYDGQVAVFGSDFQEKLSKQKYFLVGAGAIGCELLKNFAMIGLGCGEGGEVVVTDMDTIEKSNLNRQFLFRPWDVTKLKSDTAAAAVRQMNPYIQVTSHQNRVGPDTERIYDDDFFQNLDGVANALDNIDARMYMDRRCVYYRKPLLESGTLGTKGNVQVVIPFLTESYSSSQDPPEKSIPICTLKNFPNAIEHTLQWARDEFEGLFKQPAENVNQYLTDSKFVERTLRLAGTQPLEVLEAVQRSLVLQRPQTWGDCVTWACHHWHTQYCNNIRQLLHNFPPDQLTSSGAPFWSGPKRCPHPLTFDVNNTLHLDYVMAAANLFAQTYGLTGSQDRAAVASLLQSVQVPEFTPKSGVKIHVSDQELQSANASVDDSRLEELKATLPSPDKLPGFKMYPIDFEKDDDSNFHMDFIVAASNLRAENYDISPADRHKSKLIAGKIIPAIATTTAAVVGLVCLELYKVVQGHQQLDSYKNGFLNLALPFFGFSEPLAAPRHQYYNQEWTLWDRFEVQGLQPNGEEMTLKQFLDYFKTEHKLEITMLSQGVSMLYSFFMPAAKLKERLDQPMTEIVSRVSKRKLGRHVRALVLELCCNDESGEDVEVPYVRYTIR

T2: GFP-Rab34 (UniProt Q64008)
T2 sequence: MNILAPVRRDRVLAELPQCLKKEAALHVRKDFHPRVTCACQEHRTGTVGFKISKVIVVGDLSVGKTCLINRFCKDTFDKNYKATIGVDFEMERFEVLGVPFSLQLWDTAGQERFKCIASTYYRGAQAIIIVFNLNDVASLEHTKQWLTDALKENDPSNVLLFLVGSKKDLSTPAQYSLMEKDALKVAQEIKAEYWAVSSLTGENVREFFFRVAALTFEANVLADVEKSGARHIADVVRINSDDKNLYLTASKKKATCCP


Tests used:
c-Myc-BirA-Rab34 [1] = target: T1, c-Myc-BirA-Rab34; experiment: proximity labelling; BioID: 3T3-L1 cells transfected at D6 with c-Myc-BirA-Rab34 or c-Myc-BirA (mock), 50 µmol/L biotin 24 h, streptavidin Dynabeads, MS/MS; only proteins absent in mock-transfected cells kept
GFP-Rab34 [2] = target: T2, GFP-Rab34; experiment: affinity purification with mass spectrometry; 3T3-L1 cells transfected at D6 with GFP-Rab34 or mock vector, anti-GFP antibody or anti-IgG (control), protein G-Sepharose, LC-MS/MS
c-Myc-BirA-Rab34 [3] = target: T1, c-Myc-BirA-Rab34; experiment: proximity labelling; BioID: 3T3-L1 cells transfected at D6 with c-Myc-BirA-Rab34 or c-Myc-BirA (mock), 50 µmol/L biotin 24 h, streptavidin Dynabeads, MS/MS; only proteins absent in mock-transfected cells kept; remark: listed apart in the source
GFP-Rab34 [4] = target: T2, GFP-Rab34; experiment: affinity purification with mass spectrometry; 3T3-L1 cells transfected at D6 with GFP-Rab34 or mock vector, anti-GFP antibody or anti-IgG (control), protein G-Sepharose, LC-MS/MS; remark: listed apart in the source

| Molecule | binding (c-Myc-BirA-Rab34 [1]) | binding (GFP-Rab34 [2]) | binding (c-Myc-BirA-Rab34 [3]) | binding (GFP-Rab34 [4]) |
| --- | --- | --- | --- | --- |
| ISG15 Ubiquitin Like Modifier (ISG15) (from UniProt Q64339 1-155) | – | binds | – | – |
| Ubiquitin C-Terminal Hydrolase L3 (UCHL3) (enzyme, UniProt Q9JKB1 1-230) MEGQRWLPLEANPEVTNQFLKQLGLHPNWQFVDVYGMEPELLSMVPRPVCAVLLLFPITEKYEVFRTEEEEKIKSQGQDVTSSVYFMKQTISNACGTIGLIHAIANNKDKMHFESGSTLKKFLEESVSMSPEERAKFLENYDAIRVTHETSAHEGQTEAPSIDEKVDLHFIALVHVDGHLYELDGRKPFPINHGKTSDETLLEDAIEVCKKFMERDPDELRFNAIALSAA | – | – | binds | – |

Second part, the molecule after the results:

| binding (c-Myc-BirA-Rab34 [1]) | binding (GFP-Rab34 [2]) | binding (c-Myc-BirA-Rab34 [3]) | binding (GFP-Rab34 [4]) | Molecule |
| --- | --- | --- | --- | --- |
| binds | binds | – | – | E1 Ubiquitin-Activating Enzyme 1 (UBA1) (from UniProt Q02053 1-1058) |
| – | – | binds | binds | Fatty Acid Binding Protein 5 (FABP5) (protein, UniProt Q05816 1-135) MASLKDLEGKWRLMESHGFEEYMKELGVGLALRKMAAMAKPDCIITCDGNNITVKTESTVKTTVFSCNLGEKFDETTADGRKTETVCTFQDGALVQHQQWDGKESTITRKLKDGKMIVECVMNNATCTRVYEKVQ |

Reference: article PMC10770960
